In PMC4297356 one finds binding data, which are given here for eleven molecules.

T1: Vipp1–GFP (Synechocystis Vipp1 tagged with green fluorescent protein at the C-terminus) (Synechocystis sp. PCC6803) (UniProt Q55707)
T1 sequence: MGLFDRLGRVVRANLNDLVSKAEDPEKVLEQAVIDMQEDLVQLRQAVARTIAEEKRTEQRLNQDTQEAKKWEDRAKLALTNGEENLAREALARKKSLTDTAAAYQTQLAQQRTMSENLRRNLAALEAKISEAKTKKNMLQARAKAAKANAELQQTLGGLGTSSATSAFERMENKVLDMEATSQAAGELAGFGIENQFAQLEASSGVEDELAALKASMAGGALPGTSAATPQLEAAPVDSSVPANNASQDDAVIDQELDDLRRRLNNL

B1: Argininosuccinate synthase (protein, UniProt P77973 1-400)
chain: MGRAKKVVLAYSGGVDTSVCIPYLMHEWGVEEVITLAADLGQGDELGPIQEKALRCGAVESLVIDGKEEFVKEYAFRSIQANALYENRYPLSTALARPLIAKMLVEAAEKYGADAVAHGCTGKGNDQVRFDISIMALNPNLKVLAPAREWKMSREETIAYGERYGVESPVKKSSPYSIDRNILGRSIEAGPLEDPMTEPTEEIYLMTKAIADTPDEPEYVDIGFEKGIPVSLNGVMLDPVTLVERLNEIAGNHGVGRLDMVENRVVGIKSREIYEAPALLVLIDAHRDLESLTQTADVTHYKNTVEEIYSQLIYRGLWYSPLKEALDAFIVKTQERVTGMVRVKFFKGNANVAGRKSDYSIYDAELATYGMEDQFDHKAAEGFIYIWGLPTKVWAQKMRG
B2: Light repressed protein A homologue (protein, UniProt P74518 1-191)
chain: MKLLIQGNNITVTEAIHDYVEEKVERAVKHFQNLTTKVDVHLSVARNARITNKHKAEVTVYANGTVIRAQEGSENLYASIDLVADKIARQLRKYKERIQDKQHGNVKTSEIVEDKPVEENLIGDRAPELPSEVLRMKYFAMPPMAIEDALEQLQLVDHDFYMFRNKDTDEINVIYIRNHGGYGVIQPHQAS
B3: Phytoene dehydrogenase (protein, UniProt P29273 1-472)
chain: MRVVIAGAGLAGLACAKYLADAGFTPVVLERRDVLGGKIAAWKDEDGDWYETGLHIFFGAYPNMLQLFKELDIEDRLQWKEHSMIFNQPEKPGTYSRFDFPDIPAPINGLVAILRNNDMLTWPEKIRFGLGLLPAIVQGQSYVEEMDKYTWSEWMAKQNIPPRIEKEVFIAMSKALNFIDPDEISATILLTALNRFLQEKNGSKMAFLDGAPPERLCQPLVDYITERGGEVHINKPLKEILLNEDGSVKGYLIRGLDGAPDEVITADLYVSAMPVDPLKTMVPAPWREYPEFKQIQGLEGVPVINLHLWFDRKLTDIDHLLFSRSPLLSVYADMSNTCREYSDPDKSMLELVLAPAQDWIGKSDEEIVAATMAEIKQLFPQHFNGDNPARLLKSHVVKTPRSVYKATPGRQACRPDQRTSVPNFYLAGDFTMQKYLGSMEGAVLSGKQCAQAIAADFNPQTVPPTREIVTVG
B4: Thiol-specific antioxidant protein (sll0755) (protein, UniProt Q55624 1-200)
chain: MTEVLRVGQPAPDFTATAIVDQSFQTVKLSTYRGKYLVLFFYPLDFTFVCPTEIIAFSDRHSEFTALDTEVVGISVDSEFSHLAWIQTERKMGGIGNINYPLVSDLKKEISQAYNVLEPDAGIALRGLFIIDREGILQYATVNNLSFGRSVDETLRVLKAIRHVQSHPNEVCPVDWQEGDKTMIPDPEKAKTYFETVAEP
B5: Allophycocyanin alpha chain (protein, UniProt Q01951 1-161)
chain: MSIVTKSIVNADAEARYLSPGELDRIKAFVTGGAARLRIAETLTGSRETIVKQAGDRLFQKRPDIVSPGGNAYGEEMTATCLRDMDYYLRLVTYGVVSGDVTPIEEIGLVGVREMYRSLGTPIEAVAQSVREMKEVASGLMSSDDAAEASAYFDFVIGKMS
B6: Chaperone protein DnaK3 (protein, UniProt P73098 1-771)
chain: MGKVVGIDLGTTNSVVAVMEGGKPIVIANAEGMRTTPSVVGFNKEGELVVGQMGRRQAVLNPQNTFYGVKRFMGRRYTDLTPESKRVAYTIRRDDRDNIKVRCPRLKKDFAPEEISAMILRKLAEEASRYLGEKVTGAVITVPAYFNDSQRQATRDAGKIAGLEVLRIINEPTAASLAYGLDQGRIQKILVFDLGGGTFDVSVLEVGDGIFEVKATSGDTQLGGNDFDRRIVDWLAEKFLEAEKVDLRQDRQALQRLTEAAEKAKIELSGVGTTEINLPFITATEDGPKHLETQLSRSEFEDLCGDLVTRLQRPVKRVLKDAGLSPVQIDEVVLVGGGTRMPMVKGLVRSFIDREPNENVNPDEVVAIGAAIQAGILDGEVKDILLLDVTPLSFGLETIGGVMKKLLPRNTTIPVRKSDIFSTGENNQTVVEVHVLQGEREMASDNISLGRFKLSGIPPAPRGVPQVQVSFDIDANGILQVTARDKTTGREQSITVQGASILSEGEVNRMIQEAETFAAQDRERRERIEKRNSAKALTDQAQRRLKEVTLDFGSAFTVSYRRQVDALCSEILDSLEKDDERRLDRAQADLQDVLYELNREVRLQYDDKEEGFFEAIKKTFTGDFDDDDDYYNRRPAPRDDYRGGNDYGRYDDYNYNAPSRREAPMPRAGAGRGPSLSKDYRSTAYADWDQSRVTRQRPYQGESLGGTYDDRRSSPQDDYSRGDRQKDYDYRENAPSRSGRGGNGRYGERPAQPGRNAPLQNGWDDDDDDWF
B7: Peroxiredoxin (sll1621) (protein, UniProt P73728 1-189)
chain: MTPERVPSVVFKTRVRDESVPGPNPYRWEDKTTEQIFGGKKVVLFSLPGAFTPTCSSNHLPRYEQLFEEFQALGVDDIICLSVNDAFVMFQWGKQIGADKVKLLPDGNGEFTRKMGMLVEKSNLGFGMRSWRYSMFVNDGKIEKMFIEPEFGDNCPVDPFECSDADTMLAYLKGAEAPGVSEPVKAFVG
B8: Chaperonin 1 (protein, UniProt Q05972 1-541)
chain: MAKSIIYNDEARRALERGMDILAEAVAVTLGPKGRNVVLEKKFGSPQIINDGITIAKEIELEDHVENTGVSLIRQAASKTNDVAGDGTTTATVLAHAIVKEGLRNVAAGANPISLKRGIDKATDFLVARIKEHAQPVGDSKAIAQVGAISAGNDEEVGQMIANAMDKVGQEGVISLEEGKSMTTELEITEGMRFDKGYISPYFVTDAERMEAVLEDPRILITDKKINLVQDLVPILEQVARQGKPLLIIAEDIEKEALATLVVNRLRGVLNVAAVKAPGFGDRRKQMLEDIATLTGGQVISEDAGLKLESATVDSLGSARRINITKDNTTIVAEGNEAAVKSRCEQIRRQIEETDSSYDKEKLQERLAKLAGGVAVIKVGAATETEMKDRKLRLEDAINATKAAVEEGIVPGGGTTLAHLAPQLEDWATGNLKDEELTGALIVARALPAPLKRIAENAGQNGAVISERVKEKEFNVGYNAASLEYVDMLAAGIVDPAKVTRSALQNAASIAGMVLTTECIVVDKPEKEKAPAGAPGGDFDY
B9: Protein translocase subunit SecA (protein, UniProt Q55709 1-932)
chain: MLKALFGDPNTRKLKKFQPYVAEVNLYEEDIEKLSDDELKYKTVEFREALDKARSDAETEEILDEILPEAFAVVREAGKRVLGMRHFDVQLLGGIILHKGQIAEMKTGEGKTLVATLPSYLNGLTGKGVHVVTVNDYLARRDAEWMGQIHRFLGLTVGLVQSGMNPEERKKNYACDITYTTNSELGFDYLRDNMSTAMIEVVQRPFNFCIIDEVDSILIDEARTPLIISGQVERPTEKYLQASDIAAQLEPEIHYEVDEKQRNVLMTDEGFEKAEQLLQTTDLFDKNDPWAHYIFNAIKAKELFLKDVNYIVRNGEVVIVDEFTGRIMVGRRWSDGLHQAIEAKERVEIQKESQTLATITYQNFFLLYPKLSGMTGTAKTEETELEKVYNLQVTITPTNRPSSRQDWPDVVYKNEEAKWKAVALECEELHQQGRPILVGTTSVEKSEVISRLLQSSGIHHNLLNARPENVERESEIVAQAGRKGAVTIATNMAGRGTDIILGGNSDYMARLKVREYLMPKIVRPEDDELGAGVTGWVSGREKPQGFGNQNGKKKVKTWQVSPDIYPTTISQETEDLLKKAVKFAVDQYGLQSLTELEAEDKLAIASEKGPTDDPVILKLREVYNQIRREYEVLTSAEHKEVVELGGLHVIGTERHESRRVDNQLRGRAGRQGDPGSTRFFLSLEDNLLRIFGGDRVAGLMNMFRVEEDMPIESKMLTGSLEGAQKKVETYYYDIRKQVFEYDEVMNNQRKAIYAERRRVLEGLDLKEQVLVYAEKTMDEIVDAYVNPELPPEEWDVENMLDKAKQFVYLLEDLTVEDLGDMTVWEMKTFFHEEVRKAYDLKETQVDKVRPGLMREAERYFILQQIDNLWREHLQSMEALRESIGLRGYGQKDPLIEYKQEGYEMFLEMMIDIRRNVVYSLFQFQPQQQPQAV
B10: Asn/Gln-tRNA amidotransferase subunit B (protein, UniProt P74215 1-495)
chain: MTATAVKTDYEAIIGLETHCQLNTASKIFCNCSTDFDSPPNTNVCPVCLGYPGVLPVLNEEVLAAAVKLGLAINGQIAPYSKFDRKQYFYPDLPKNYQISQFDLPIVEHGSLEIELVDKKTKEITRKTIGITRLHMEEDAGKLVHAGSDRLAGSTHSLVDFNRTGVPLLEIVSEPDLRTGQEAAEYAQSLRQLVRYLGISDGNMQEGSLRCDVNISVRPVGQKEFGTKVEIKNMNSFSAIQKAIEYEIERQIKAIADGEEIYQETRLWEEGSQRTISMRKKEGSSDYRYFPEPDLPPLEVSEQQKQTWFATLPELPSAKRARYEQKLGLSAYDARVLTEDRDVALYFEEAVNAGADPKAVANWVTQDIAAYLNNNRLTISGLALKPSALAELIDLITKGTISGKIAKDILPELLEKGGSPQKIIEARGLVQISDPDELTAIIQAVIADHPKELEKFRSGKGNMQGFFVGQVMKRTGGKADPKLTNQLIGKLLAQA
B11: Elongation factor G1 (protein, UniProt P28371 1-695)
chain: MEKDLTRYRNIGIFAHVDAGKTTTTERILKLTGRIHKLGEVHEGESTMDFMEQEAERGITIQSAATSCFWKDHQLNVIDTPGHVDFTIEVYRSLKVLDGGIGVFCGSGGVEPQSETNWRYANDSKVARLIYINKLDRTGADFYRVVKQVETVLGAKPLVMTLPIGTENDFVGVVDILTEKAYIWDDSGDPEKYEITDIPADMVDDVATYREMLIETAVEQDDDLMEKYLEGEEISIDDIKRCIRTGTRKLDFFPTYGGSSFKNKGVQLVLDAVVDYLPNPKEVPPQPEVDLEGEETGNYAIVDPEAPLRALAFKIMDDRFGALTFTRIYSGTLSKGDTILNTATGKTERIGRLVEMHADSREEIESAQAGDIVAIVGMKNVQTGHTLCDPKNPATLEPMVFPDPVISIAIKPKKKGMDEKLGMALSKMVQEDPSFQVETDEESGETIIKGMGELHLDIKMDILKRTHGVEVEMGKPQVAYRESITQQVSDTYVHKKQSGGSGQYAKIDYIVEPGEPGSGFQFESKVTGGNVPREYWPAVQKGFDQSVVKGVLAGYPVVDLKVTLTDGGFHPVDSSAIAFEIAAKAGYRQSLPKAKPQILEPIMAVDVFTPEDHMGDVIGDLNRRRGMIKSQETGPMGVRVKADVPLSEMFGYIGDLRTMTSGRGQFSMVFDHYAPCPTNVAEEVIKEAKERQAAA

No constants are given. Whether binding was seen depends on the method and setting. In cells and extracts the contact can be indirect. Here binding means that the protein was enriched with, or labelled near, the bait; the list need not be complete. Tags and fused reporters may be left off the sequences shown.

In this assay the target is T1, Vipp1–GFP (Synechocystis Vipp1 tagged with green fluorescent protein at the C-terminus) (Synechocystis sp. PCC6803). Description: affinity purification with mass spectrometry; anti-GFP microbeads (μMACS column) on lysate of HL-exposed (600 μE m^−2 s^−1) Synechocystis vipp1–gfp cells broken without detergent; bound fraction on 10% SDS-PAGE, bands identified by MS/MS; compared with LL vipp1–gfp and HL wild-type cells.
On to B1, for which the binding result is given as “binds”.

Turning to B2, the binding result was “binds”. In the case of B3, the binding result was “binds”. Then B4, with “binds”. As for B5, the binding entry was “binds”. Consider B6, for which the binding result was “binds”. B7: the binding result is given as “binds”. In the case of B8 it was “binds”; in that of B9, “binds”; in that of B10, “binds”. Take B11: the binding result is listed as “binds”.
